According to PubChem BioAssay AID504467 (National Center for Advancing Translational Sciences (NCATS), 2011):
Among all 330,000 compounds or so, about 7,700 (2.3%) were called active. Inconclusive results, whose numbers are uncertain, are shown with a selection of clear calls. Calls come from the whole dose curve; as a rule, active = well fitted inhibition curve with a large enough effect; inconclusive = small, poorly fitted or top-dose-only effect, or effect the other way; inactive = flat fitted curve, though single readings scatter. Potencies beside an inconclusive call are fits to weak or partial responses and may not hold up.

test: qHTS screen for small molecules that inhibit ELG1-dependent DNA repair in human embryonic kidney (HEK293T) cells expressing luciferase-tagged ELG1; settings: HEK293T ELG1-luciferase reporter, luminescence, 16 h, DNA damage induced by 5-fluorouridine; series mostly up to 46.1 µM; note: nearly all actives have a fitted effect of over 55% in size
Summary of the method: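 Overnight (16 hr) co-exposure of 2,000 cells/well to 5-fluorouridine and compound at 37 °C preceded detection. Luciferase was quantified via ONE-Glo luminescence; loss of signal denotes inhibition.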
Potency is the fitted concentration of half-maximal effect.

Structure (SMILES)	Potency
O=C(COc1cc([N+](=O)[O-])cc2cccnc12)NCCC1=CCCCC1	inconclusive: 29.1 µM [inhibitor, single point]
Fc1c(F)c(F)c(NC2=NCCCCC2)c(F)c1F	inconclusive: 23.1 µM [inhibitor, single point]
O=C(Cc1cc(=O)oc2cc(O)ccc12)NC(Cc1ccc(Cl)cc1)C(=O)O (stereo not drawn)	inactive
CC(C)CNc1nc(=S)nc(N(C)C)[nH]1	inactive
COc1ccccc1NS(=O)(=O)c1ccc(O)c(NC(=S)NCC2CCCO2)c1 (stereo not drawn)	inactive
O=C(NCc1ccc(F)cc1)c1c2c(nc3ccccc13)CCN(Cc1ccccc1)C2	inactive
N#Cc1ccc(C2=CC(=O)C[C@H](c3ccc4c(c3)OCO4)C2)cc1	inconclusive: 29.1 µM [inhibitor, single point]
COc1ccccc1OCC(=O)Nc1ccccc1C(=O)NCc1ccco1	inconclusive: 29.1 µM [inhibitor, single point]
CC(C)(C)C1CCC(=NNC(=O)c2ccco2)CC1 (stereo not drawn)	inconclusive: 16.4 µM [activator, partial curve]
O=C(C1=C[C@@H](c2coc3ccccc3c2=O)C[C@@H](OCc2ccc(CO)cc2)O1)N1CCN(Cc2ccccc2)CC1	inconclusive: 2.59 µM [inhibitor, full curve]
COc1cccc(NC(=O)Cc2ccc(C)cc2)c1	inconclusive: 16.4 µM [activator, partial curve]
COCC(=O)OC/C(O)=C(\C#N)c1nc2ccccc2[nH]1	inconclusive: 29.1 µM [activator, single point]
Oc1c(Cl)cc(Cl)c(Cl)c1Cc1c(O)c(Cl)cc(Cl)c1Cl	inconclusive: 3.66 µM [inhibitor, partial curve, poor fit]
O=C(CN1CCN(C(=O)c2ccco2)CC1)Nc1ccccc1-c1ccccc1	inactive
O=C(CSc1nnc(-c2ccccc2)o1)N1CCOCC1	inconclusive: 13 µM [activator, single point]
Cc1cccc(NC(c2ccc(O)cc2)c2ccc3ccc(C)nc3c2O)n1 (stereo not drawn)	inactive
Cc1ccn2c(NC(=O)c3ccco3)c(-c3ccccc3)nc2c1	inactive
O=C1C2C3C=CC(C4CC34)C2C(=O)N1/N=C/c1ccc(-c2cccc([N+](=O)[O-])c2)o1 (stereo not drawn)	inconclusive: 16.4 µM [inhibitor, single point]
Cc1ccc(C(=O)c2cc([N+](=O)[O-])ccc2N2CCCCC2)cc1	inconclusive: 0.731 µM [inhibitor, single point]
Cc1ccc(OC(=O)NC2CCS(=O)(=O)C2)cc1C (stereo not drawn)	inactive
O=c1cc(-c2ccc3c(c2)OCO3)oc2ccccc12	inconclusive: 6.51 µM [activator, full curve]
CNC(=O)NC(=O)COC(=O)/C=C/c1cccc(Br)c1	inconclusive: 3.66 µM [inhibitor, single point]

2 entries from above in another layout.
Structure (SMILES) | Potency
CC(C)(C)C1CCC(=NNC(=O)c2ccco2)CC1 (stereo not drawn) | inconclusive: 16.4 µM [activator, partial curve]
Oc1c(Cl)cc(Cl)c(Cl)c1Cc1c(O)c(Cl)cc(Cl)c1Cl | inconclusive: 3.66 µM [inhibitor, partial curve, poor fit]

Additional results

Structure (SMILES)	Potency
O=C(c1ccc(F)cc1)N1CCN(c2ccc([N+](=O)[O-])cc2-n2cccc2)CC1	inconclusive: 6.51 µM [inhibitor, single point]
O=C(CSc1nnc(CNC(=O)c2ccccc2)o1)NCCc1ccccc1	inactive
Cc1ccc(-c2ccc(CCC(=O)O)n2-c2ccc(C(=O)O)cc2)cc1	inactive
CN(Cc1c(F)cccc1Cl)C(=O)c1cccc(S(=O)(=O)NCc2ccccc2)c1	inactive
O=C(O)c1csc(-c2cccc(Cl)c2)n1	inconclusive: 32.6 µM [activator, partial curve, poor fit]
CC(C)[C@H](NS(=O)(=O)c1cccc(Cl)c1)C(=O)OCC(=O)N1CCN(c2ccccc2)CC1	inconclusive: 23.1 µM [inhibitor, partial curve]
Cc1ccc(OC(=O)COc2ccccc2)c(-n2nc3ccccc3n2)c1	inconclusive: 10.3 µM [activator, partial curve]
CCN(CC(=O)Nc1ccccc1OC)C(=O)c1cc(S(=O)(=O)N2CCCCCC2)ccc1OC	inconclusive: 18.3 µM [inhibitor, partial curve, poor fit]
CC(=O)NCCC(=O)N(Cc1ccccc1)c1nc2c(C)cccc2s1	inactive
CCO[C@H]1OC(C(=O)N2CCN(Cc3ccc4c(c3)OCO4)CC2)=C[C@@H](c2csc3ccccc23)[C@@H]1CCCO	inconclusive: 11.6 µM [inhibitor, partial curve, poor fit]
CCOc1ccc(Nc2nc3cc(S(=O)(=O)N(CC)CC)ccc3o2)cc1	inconclusive: 9.2 µM [inhibitor, partial curve, poor fit]
COc1cccc(C2C3=C(N=C4SCC(=O)N42)c2ccccc2CC3)c1OC (stereo not drawn)	inactive
Cc1cc(C)c2oc(C(=O)NC3CCS(=O)(=O)C3)cc(=O)c2c1 (stereo not drawn)	inactive
O=C(Nc1ccc(Cl)c(Cl)c1)c1ccncc1	inconclusive: 18.4 µM [activator, partial curve, poor fit]
CCn1c(Cc2ccccc2)nnc1SCc1cccc(C(=O)O)c1	inconclusive: 18.4 µM [activator, single point]
O=c1c(-c2ccc(O)cc2)coc2cc(OC3OC(CO)C(O)C(O)C3O)ccc12 (stereo not drawn)	inconclusive: 10.3 µM [activator, partial curve]
Cc1[nH]nc(SCC(=O)Nc2ccc(C#N)cc2)c1[N+](=O)[O-]	inactive
CCCCCOC(=O)C1=C(C)Nc2nnnn2C1c1ccccc1Cl (stereo not drawn)	inconclusive: 29.1 µM [inhibitor, single point]
O=C(NC1CCN(Cc2ccccc2)CC1)c1ccc(Cn2c(=S)[nH]c3ccc(N4CCOCC4)cc3c2=O)cc1	inconclusive: 6.51 µM [activator, single point]
Cc1cccc(Nc2ncc3c(n2)CC(C)CC3=O)c1 (stereo not drawn)	inconclusive: 9.2 µM [activator, partial curve]
CC(C)Oc1ccc(S(=O)(=O)N2CCOCC2)cc1NC(=O)c1cc([N+](=O)[O-])ccc1N1CCOCC1	inconclusive: 29.1 µM [inhibitor, partial curve, poor fit]
